In article PMC11092326:
These are yes or no findings as the source states them, for the method shown. Binding seen in cells or lysates may run through a third protein. These calls come from enrichment with a bait or labelling near it, and not all partners need be listed.

Chains of the proteins cited; added tags and fusions are not shown.
UniProt P35579: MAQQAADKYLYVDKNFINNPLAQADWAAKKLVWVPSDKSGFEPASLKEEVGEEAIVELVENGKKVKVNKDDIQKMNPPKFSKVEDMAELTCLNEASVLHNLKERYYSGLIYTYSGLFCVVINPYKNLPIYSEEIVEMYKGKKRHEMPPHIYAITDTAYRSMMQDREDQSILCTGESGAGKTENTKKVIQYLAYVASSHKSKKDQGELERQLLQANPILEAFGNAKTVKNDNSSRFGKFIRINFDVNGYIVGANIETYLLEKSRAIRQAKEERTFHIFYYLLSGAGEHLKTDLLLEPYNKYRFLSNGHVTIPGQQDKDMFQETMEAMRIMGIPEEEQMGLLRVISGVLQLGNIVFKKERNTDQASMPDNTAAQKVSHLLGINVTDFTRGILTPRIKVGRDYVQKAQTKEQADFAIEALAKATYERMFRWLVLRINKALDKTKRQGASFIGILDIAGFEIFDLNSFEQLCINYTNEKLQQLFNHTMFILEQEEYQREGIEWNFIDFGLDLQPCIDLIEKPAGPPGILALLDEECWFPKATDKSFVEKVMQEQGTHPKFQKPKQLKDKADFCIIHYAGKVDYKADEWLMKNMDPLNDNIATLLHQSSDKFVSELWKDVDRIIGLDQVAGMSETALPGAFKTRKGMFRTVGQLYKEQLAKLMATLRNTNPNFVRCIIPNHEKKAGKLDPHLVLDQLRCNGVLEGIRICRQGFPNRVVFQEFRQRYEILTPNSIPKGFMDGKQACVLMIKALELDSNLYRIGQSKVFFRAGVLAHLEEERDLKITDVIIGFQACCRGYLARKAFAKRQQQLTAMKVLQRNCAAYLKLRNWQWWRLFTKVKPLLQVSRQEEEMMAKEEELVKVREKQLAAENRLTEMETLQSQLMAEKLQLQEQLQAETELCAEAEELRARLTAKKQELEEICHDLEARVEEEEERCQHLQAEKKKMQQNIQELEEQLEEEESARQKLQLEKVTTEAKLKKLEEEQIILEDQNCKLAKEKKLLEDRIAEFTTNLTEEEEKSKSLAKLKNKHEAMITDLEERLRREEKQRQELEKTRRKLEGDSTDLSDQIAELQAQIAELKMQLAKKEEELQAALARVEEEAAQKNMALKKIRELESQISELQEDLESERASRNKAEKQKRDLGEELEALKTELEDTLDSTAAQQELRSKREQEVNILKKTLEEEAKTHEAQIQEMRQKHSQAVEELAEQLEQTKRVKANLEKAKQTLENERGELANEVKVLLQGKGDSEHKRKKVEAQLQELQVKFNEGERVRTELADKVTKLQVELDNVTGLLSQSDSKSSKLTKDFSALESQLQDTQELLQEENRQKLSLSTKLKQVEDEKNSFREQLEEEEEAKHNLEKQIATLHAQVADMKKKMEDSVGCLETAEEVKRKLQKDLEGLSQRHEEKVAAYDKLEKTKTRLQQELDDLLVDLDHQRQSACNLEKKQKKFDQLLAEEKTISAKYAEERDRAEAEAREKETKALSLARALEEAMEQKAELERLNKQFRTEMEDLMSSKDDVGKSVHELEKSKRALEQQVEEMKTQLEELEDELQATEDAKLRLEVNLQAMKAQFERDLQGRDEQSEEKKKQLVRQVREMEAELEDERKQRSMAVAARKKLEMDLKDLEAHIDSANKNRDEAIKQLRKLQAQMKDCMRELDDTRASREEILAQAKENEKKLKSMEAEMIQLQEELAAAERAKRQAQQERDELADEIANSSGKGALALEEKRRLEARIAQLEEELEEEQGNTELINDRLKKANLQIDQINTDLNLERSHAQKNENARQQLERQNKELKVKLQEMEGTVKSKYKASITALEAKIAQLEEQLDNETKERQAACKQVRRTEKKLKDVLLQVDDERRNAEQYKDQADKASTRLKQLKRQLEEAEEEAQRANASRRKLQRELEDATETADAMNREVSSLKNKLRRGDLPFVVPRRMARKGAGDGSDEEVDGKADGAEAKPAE
UniProt P09874: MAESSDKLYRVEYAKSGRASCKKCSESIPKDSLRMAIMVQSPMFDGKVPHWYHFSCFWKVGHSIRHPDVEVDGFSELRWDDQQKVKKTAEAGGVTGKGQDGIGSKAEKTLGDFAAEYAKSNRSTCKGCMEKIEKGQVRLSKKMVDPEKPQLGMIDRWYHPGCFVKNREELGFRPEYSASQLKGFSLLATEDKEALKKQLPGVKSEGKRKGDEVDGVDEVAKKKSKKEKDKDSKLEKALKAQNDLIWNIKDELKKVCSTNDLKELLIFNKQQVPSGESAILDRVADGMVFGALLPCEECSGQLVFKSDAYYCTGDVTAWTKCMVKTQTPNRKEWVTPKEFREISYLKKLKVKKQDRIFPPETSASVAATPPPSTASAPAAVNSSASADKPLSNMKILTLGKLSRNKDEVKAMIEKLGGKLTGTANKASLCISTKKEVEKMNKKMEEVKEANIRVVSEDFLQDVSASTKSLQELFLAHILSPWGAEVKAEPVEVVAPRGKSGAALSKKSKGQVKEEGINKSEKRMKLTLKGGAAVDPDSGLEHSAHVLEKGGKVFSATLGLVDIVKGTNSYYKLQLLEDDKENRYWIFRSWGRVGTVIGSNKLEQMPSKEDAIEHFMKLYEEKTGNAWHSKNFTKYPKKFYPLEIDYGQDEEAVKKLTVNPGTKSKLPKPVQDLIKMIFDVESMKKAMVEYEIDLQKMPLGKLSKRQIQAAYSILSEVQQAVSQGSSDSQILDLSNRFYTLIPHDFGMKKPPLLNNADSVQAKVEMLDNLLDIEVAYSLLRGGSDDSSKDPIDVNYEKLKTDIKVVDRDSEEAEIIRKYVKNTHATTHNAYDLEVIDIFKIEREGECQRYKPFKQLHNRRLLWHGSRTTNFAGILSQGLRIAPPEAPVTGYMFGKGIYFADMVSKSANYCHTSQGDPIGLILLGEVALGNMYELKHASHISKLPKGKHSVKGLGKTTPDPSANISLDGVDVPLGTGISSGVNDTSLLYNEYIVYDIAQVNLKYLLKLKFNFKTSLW

Biological target: non-muscle myosin heavy chain IIA (endogenous, HeLa) (human (endogenous in HeLa)) (UniProt P35579)
Experiment: affinity purification with mass spectrom

Substance: poly (ADP-ribose) polymerase 1 (endogenous, HeLa) (from UniProt P09874 1-1014)
- binding: binds
